Where “and” joins values, the source holds several entries; their conditions need not be identical. Equal entries are not always repeated. This is one part of the list. These are further read-outs of the screen, such as a control signal, another cell line or another target. No call is given for them. Compounds called inactive in the main read-out are mostly missing here. Potencies come from curve fits of mixed quality, noted in brackets.
Experiment: qHTS Assay to Find Inhibitors of Chronic Active B-Cell Receptor Signaling
Conditions: ABC-DLBCL IkBa-CBG/CBR reporter, luminescence ratio (green luciferase fused to IkBa over red control in TMD8 lymphoma cells), 4 h
Summary of the method: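 Doxycycline induced both beetle luciferases in TMD8 lymphoma cells; IKK-driven degradation limits the IkappaBalpha-fused green signal, while red luminescence normalises for cell number and nonspecific effects. Compounds tested up to 46 uM, 4 hrs.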

[1] = measured here: CBR red luminescence, cell number
[2] = measured here: IkBa-CBG green luminescence

Row | SMILES | AC50 [1] | AC50 [2]
1 | O=C(CSc1ncnc2c1cnn2Cc1ccccc1)Nc1ccc2c(c1)OCCO2 | 18.4 µM [rising, single point] | –
2 | O=C(NCC(c1ccco1)N1CCc2ccccc2C1)C(=O)Nc1ccccc1F (stereo unspecified) | 9.2 µM [falling, partial curve, poor fit] | –
3 | CN1CCc2c(sc3nc(NCCO)n(-c4cccc(Cl)c4)c(=O)c23)C1 | 6.31 µM [rising, single point] | –
4 | CCCCn1c(=O)[nH]c2c(oc3ccccc32)c1=O | 2.51 µM [falling, full curve, poor fit] | –
5 | Cc1ccc(C)n1-c1ccc(NC(=O)c2ccccc2)cc1 | 16.4 µM [falling, partial curve, poor fit] | –
6 | COc1ccc(CNC(=O)C/C(C)=N/NC(=O)c2ccccc2OC)cc1 | 0.355 µM [falling, full curve, poor fit] | –
7 | CCOC(=O)C1=CN(Cc2ccco2)S(=O)(=O)N(CC)C1c1ccc(F)c(Cl)c1 (stereo unspecified) | 29.1 µM [falling, single point] | –
8 | Cc1nc2ccccc2nc1CSc1nnc(N)s1 | 6.51 µM [rising, single point] | –
9 | O=C(CCc1nnc2n(Cc3ccc(Cl)cc3)c(=O)c3ccccc3n12)NCCN1CCCC1 | 3.55 µM [falling, single point] | –
10 | CC1CCCN(C(=O)C(C)Sc2nc(-c3ccccc3)cc(C(F)(F)F)n2)C1 (stereo unspecified) | 4.11 µM [rising, single point] | –
11 | CCN(CC)C(=O)Cn1cc(C(=O)C(=O)NCCc2c[nH]c3ccccc23)c2ccccc21 | 1.12 µM [falling, full curve] | –
12 | CN(C)c1ccc(NC(=O)Cn2c(SCc3ccc(F)cc3)nc3cccnc32)cc1 | 6.31 µM [falling, partial curve, poor fit] | –
13 | Brc1ccc2[nH]c3c(N4CCc5ccccc5C4)ncnc3c2c1 | 32.6 µM [falling, single point] | –
14 | COc1ccc(-c2cc(CCC(=O)N3CCN(c4cc(C)ccc4C)CC3)[nH]n2)cc1 | – | 8.2 µM [falling, partial curve, poor fit]
15 | OCCN1CCN(CC#CCn2c3ccccc3c3ccccc32)CC1 | 15.8 µM [falling, partial curve, poor fit] | –
16 | O=c1cc(-c2ccccc2)nc2nc(COc3ccccc3)[nH]n12 | 0.651 µM [falling, full curve] | –
17 | O=C(c1cccc(C(=O)N2CCN(c3ccc(F)cc3)CC2)c1)N1CCN(c2ccc(F)cc2)CC1 | 17.8 µM [falling, single point] | –
18 | O=C(O)CSCC(=O)N1CCN(Cc2ccc3c(c2)OCO3)CC1 | 35.5 µM [rising, partial curve, poor fit] | –
19 | O=C(/C=C/c1cccc(Cl)c1)c1nc2ccccc2[nH]1 | 8.91 µM [rising, partial curve] | 8.91 µM [falling, partial curve]
20 | Fc1ccc(-c2ccnn2-c2ccccc2)cc1 | 12.6 µM [rising, partial curve] | –

Row | SMILES | AC50 [1] | AC50 [2]
21 | Cc1ccc(CNC(=O)C(=O)NCC(c2cccs2)S(=O)(=O)c2cccs2)cc1 (stereo unspecified) | 5.62 µM [rising, single point] | –
22 | NC(=O)c1ccccc1NC(=O)COC(=O)C1(c2ccccc2)CC1 | 4.11 µM [falling, full curve, poor fit] | –
23 | CCOC(=O)c1[nH]c2ccccc2c1NC(=O)c1ccc(Br)o1 | 14.6 µM [falling, partial curve, poor fit] | 18.4 µM [rising, partial curve, poor fit]
24 | CC(C)C(=O)Nc1ccc(NC(=O)c2ccc([N+](=O)[O-])cc2Cl)cc1 | 2.31 µM [rising, full curve, poor fit] | –
25 | O=C(N/N=C/C(Br)=C/c1ccccc1)c1cc(-c2ccco2)[nH]n1 | 17.8 µM [falling, single point] | –
26 | COCCCNc1ncnc2c1cnn2-c1ccc(C)cc1C | 6.51 µM [rising, single point] | –
27 | CCc1ccc(CNCCSc2nnnn2C)cc1 | 0.00731 µM [rising, full curve, poor fit] | –
28 | CCN1C(=NCCc2ccc(Br)cc2)N[C@@H](c2ccccc2)[C@H](C(=O)OC)[C@H]1C | 11.2 µM [falling, partial curve, poor fit] and 32.6 µM [falling, single point] | –
29 | CC1=C(C)CC(C(=O)NNC(=O)c2ccccc2O)C(C(=O)O)C1 (stereo unspecified) | 6.51 µM [falling, partial curve, poor fit] | –
30 | CC1=C(C(=O)OCCOC(C)C)C(c2cc3c(cc2Br)OCO3)C2=C(CCCC2=O)N1 (stereo unspecified) | 29.1 µM [falling, partial curve, poor fit] | –
31 | O=C(O)CNS(=O)(=O)c1ccc(F)cc1 | 0.0651 µM [rising, full curve, poor fit] | –
32 | c1ccc2oc(-c3[nH]ncc3CN3CCC(N4CCSCC4)CC3)cc2c1 | 5.01 µM [falling, full curve] | –
33 | O=C(CC1Nc2cccc3cccc(c23)NC1=O)Nc1ccc(F)cc1 (stereo unspecified) | 5.62 µM [falling, full curve, poor fit] | –
34 | COc1ccc(Cl)cc1-n1c(=S)sc2c(=O)[nH]c(SCC(=O)C(C)(C)C)nc21 | 17.8 µM [falling, single point] | –
35 | O=C1CC(N(CCc2ccccc2)C(=S)Nc2ccccc2)C(=O)N1c1ccc(F)cc1 (stereo unspecified) | 35.5 µM [falling, single point] | –
36 | Cc1ccc(S(=O)(=O)N2CCSC2=Nc2ccccc2)cc1 | 35.5 µM [falling, partial curve, poor fit] | –
37 | O=C(/C=C/c1ccccc1)NCC(=O)N/N=C/c1cccs1 | 1.26 µM [rising, partial curve, poor fit] | –
38 | Cc1ccnc(NC(=O)c2cccc(NC(=O)COc3ccccc3)c2)c1 | 8.91 µM [falling, partial curve, poor fit] | –
39 | Cc1ccccc1Nc1c(-c2ccccn2)nc2ccccn12 | 35.5 µM [falling, single point] | –

Three structures from above, arranged by SMILES length, rising:
Row | SMILES | AC50 [1] | AC50 [2]
36 | Cc1ccc(S(=O)(=O)N2CCSC2=Nc2ccccc2)cc1 | 35.5 µM [falling, partial curve, poor fit] | –
21 | Cc1ccc(CNC(=O)C(=O)NCC(c2cccs2)S(=O)(=O)c2cccs2)cc1 (stereo unspecified) | 5.62 µM [rising, single point] | –
35 | O=C1CC(N(CCc2ccccc2)C(=S)Nc2ccccc2)C(=O)N1c1ccc(F)cc1 (stereo unspecified) | 35.5 µM [falling, single point] | –

From PubChem BioAssay AID493014 (National Center for Advancing Translational Sciences (NCATS), 2011)
